The text below walks through data of PubChem BioAssay AID1487 (National Center for Advancing Translational Sciences (NCATS), 2009).

A short description of the test: qHTS Assay for Modulators of Lamin A Splicing. The following applies: HeLa LMNA splicing GFP/RFP minigene ratio, 48 h. The method in brief:
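Read-out is the ratio of GFP to DsRed2 object intensity, acquired by 488 nm laser-scanning cytometry on HeLa lamin A-EGFP minigene reporter cells. Compound incubation 48 hrs at 37 °C in Opti-MEM with 2% FBS; DMSO 0.5% final.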

[1] abbreviates: measured here: RFP viability control channel.
[2] abbreviates: measured here: GFP splicing reporter channel.

SMILES strings stand for the structures. This is one part of the list. Shown are side measurements of this screen, not its main read-out; they come without a call. The list favours compounds with an active or inconclusive main result. Potencies come from curve fits of mixed quality, noted in brackets.

On to `O=C(Nn1c(-c2ccc(Br)cc2)nc2ccccc2c1=O)c1ccc([N+](=O)[O-])cc1`, for which, under setting [1], the AC50 was 11.2 µM [rising, partial curve].
As for `COc1ccc(-c2ccc(NS(=O)(=O)c3ccc(F)c(C(F)(F)F)c3)cc2)nn1`, the AC50 by setting is: under setting [2], 0.0501 µM [falling, full curve, poor fit]; under setting [1], 0.316 µM [falling, full curve, poor fit].
Consider `CN1CCN(S(=O)(=O)c2ccc(NC(=O)c3cccc(S(=O)(=O)N4CCCC4)c3)cc2)CC1`, for which the concentration at half-maximal activity (AC50) runs as follows: under setting [2], 14.1 µM [rising, single point]; under setting [1], 31.6 µM [rising, single point].
As for `N=c1n(Cc2ccc(Cl)cc2)c2ccccc2n1CC(O)COc1ccccc1` (stereo unspecified), the AC50 reads like this: under setting [2], 17.8 µM [falling, partial curve]; under setting [1], 20 µM [falling, partial curve, poor fit].
As to `CC1C(=O)NN=C1C(=O)N/N=C/c1ccco1` (stereo unspecified), the AC50 under setting [2] was 0.0112 µM [falling, full curve, poor fit].
Still for that read-out and setting: then `Cc1cccc(NC(=O)c2cc(Cl)sc2Cl)c1C`, with 1.58 µM [falling, partial curve].
As to `CCOC(=O)/C=C(/C)N1N=C(c2ccc(OC)cc2)CC1c1cccc([N+](=O)[O-])c1` (stereo unspecified), the AC50 under setting [1] was 15.8 µM [rising, single point].
With `Cc1ccc(S(=O)(=O)N(C)CC(=O)N2CCCc3ccccc32)cc1`, the AC50 under setting [2] is 0.0794 µM [rising, full curve, poor fit].
With `Cc1cccc(N2CC(C(=O)OCc3ccc([N+](=O)[O-])cc3)CC2=O)c1` (stereo unspecified), under setting [2], the half-maximal activity concentration (AC50) is 15.8 µM [rising, partial curve, poor fit].
Regarding `Cn1nc(-c2ccc(OCC(=O)Nc3ccccc3)cc2)c2ccccc2c1=O`, the AC50 under setting [1] is 31.6 µM [rising, single point].
Consider `Cc1ccc(OCC(=O)N/N=C/c2ccc([N+](=O)[O-])o2)cc1`, for which the AC50 under setting [1] is 35.5 µM [rising, single point].
Take `O=C(NNC1=C(C(=O)C(F)(F)F)CCC1)c1cccc(Cl)c1`: the concentration at half-maximal activity (AC50) under setting [1] is 17.8 µM [rising, single point].
Regarding `C#CCOc1c(Cl)cc(/C=N/NC(N)=S)cc1OCC`, the AC50 under setting [2] is 0.0398 µM [falling, full curve] and the AC50 under setting [1] is 0.0398 µM [falling, full curve].
Consider `CCCN(C(=O)CSc1cc(-c2ccccc2)c2ccc(OC)cc2n1)C1CCS(=O)(=O)C1` (stereo unspecified), for which the AC50 was 31.6 µM [rising, single point] under setting [2] and 35.5 µM [rising, single point] under setting [1].
For `CCC(C)/C(C)=N/NC(=O)C1COc2ccccc2O1` (stereo unspecified), the AC50 under setting [1] is 10 µM [rising, partial curve].
With `S=c1[nH]nc(CCc2ccccc2)n1Cc1ccccc1`, the AC50 under setting [2] was 35.5 µM [falling, partial curve, poor fit].
For the molecule `COc1ccc(-c2nc(Cn3c(SCc4ccc(C)cc4)nc4cccnc43)c(C)o2)cc1OC`, the concentration at half-maximal activity (AC50) under setting [1] was 2 µM [rising, single point].
In the case of `N/C(=N\S(=O)(=O)c1cc(C(F)(F)F)cc(C(F)(F)F)c1)c1ccc(Cl)cc1`, the AC50 under setting [1] is 15.8 µM [falling, single point].
As to `O=C(NCc1ccccc1)C1c2ccccc2Oc2ccccc21`, the AC50 under setting [2] is 0.282 µM [rising, partial curve, poor fit].
Regarding `CCOc1cc(C)c(S(=O)(=O)Nc2ccc(F)cc2)cc1C`, the AC50 runs as follows: under setting [2], 17.8 µM [rising, partial curve]; under setting [1], 17.8 µM [rising, single point].
For the molecule `COc1ccc(-c2nnc(SCC(=O)Nc3ccc(Cl)cc3)s2)cc1`, the AC50 under setting [1] was 0.708 µM [rising, single point].
In the case of `Cc1cc(-c2ccccc2)nc(Oc2cccc(C(F)(F)F)c2)c1S(C)(=O)=O`, the AC50 under setting [2] was 31.6 µM [rising, single point] and the AC50 under setting [1] was 35.5 µM [rising, single point].
With `O=C(CSc1nc(-c2ccccc2)cs1)NC(=O)NCc1ccco1`, the AC50 under setting [1] is 11.2 µM [rising, partial curve, poor fit].
Same read-out and setting: then `CN(C)S(=O)(=O)c1ccc2nnn(OCC(=O)NC34CC5CC(CC(C5)C3)C4)c2c1`, with 11.2 µM [rising, partial curve, poor fit].
`Cc1ccsc1/C=C1\SC(=S)N(CC2CCCO2)C1=O` (stereo unspecified): under setting [2], the AC50 is 0.562 µM [falling, full curve, poor fit].
Turning to `Cc1ccccc1-c1ccc2ncnc(NCc3cccs3)c2c1`, the AC50 reads like this: under setting [2], 12.6 µM [falling, partial curve]; under setting [1], 15.8 µM [falling, partial curve].
`Cc1ccc(S(=O)(=O)N(C)C)cc1NC(=O)CN1C(=O)NC2(CCCc3ccccc32)C1=O` (stereo unspecified): under setting [1], the AC50 was 35.5 µM [rising, single point].
On the same count and under the same terms, the result for `CN(C)CCC[C@@]1(c2ccc(F)cc2)OCc2cc(C#N)ccc21` reads 0.794 µM [falling, full curve, poor fit]; that for `CCc1ccc(/C=C/C(=O)c2cc(Br)ccc(=O)c2O)cc1`, 15.8 µM [rising, single point].
Same read-out and setting: the result for `Fc1ccc(F)c(NC(=S)NCCc2ccccc2)c1` reads 15.8 µM [rising, partial curve].
`COc1ccc(C(c2nnnn2C(C)(C)C)N2CCN(c3nc4ccccc4s3)CC2)cc1` (stereo unspecified): the AC50 reads like this: under setting [2], 14.1 µM [rising, single point]; under setting [1], 14.1 µM [rising, single point].
For `Cc1ccc(C(=O)NCCNc2ccc([N+](=O)[O-])cc2C(F)(F)F)cc1`, the AC50 under setting [1] was 28.2 µM [rising, single point].
As to `CCOC(=O)NC(=O)CSc1nc(C)cc(C)c1C#N`, the AC50 under setting [1] is 12.6 µM [rising, single point].
Consider `OCCC1CN(Cc2ccon2)CCN1Cc1ccccc1` (stereo unspecified), for which the AC50 under setting [2] is 0.891 µM [falling, full curve, poor fit].
As for `Nc1n[nH]c(N)c1N=Nc1ccc(Cl)cc1Cl`, the AC50 under setting [1] was 11.2 µM [rising, single point].
On the same count and under the same terms, the result for `Cc1cc(C)cc(N(C(=O)CCC(=O)Nc2cc(C)on2)C(C(=O)NC2CCCC2)c2ccco2)c1` (stereo unspecified) reads 0.0141 µM [falling, full curve, poor fit]; that for `CCn1nc(C)c(/C=N/NC(=O)c2ccc3c(c2)c(C)c(C)n3Cc2ccccc2)c1C`, 25.1 µM [rising, single point].
